# Inconclusive means that the source gave no clear call. Such entries were picked first, then a sample of the others. For some of these results: Potencies of inconclusive entries are doubtful fits and often do not repeat. Activity calls are given as the source filed them. Rule for the calls: active = hit-call score of the fitted dose curve at least 0.9, where 1 is the maximum; inconclusive = response in the unintended direction; inactive = score below 0.9.
# Sequences of proteins named here, by UniProt entry; tags and fusion partners are left off. A change or cut given only in a name is not applied to a line headed by its entry.
# UniProt P10276, whole entry, looked up: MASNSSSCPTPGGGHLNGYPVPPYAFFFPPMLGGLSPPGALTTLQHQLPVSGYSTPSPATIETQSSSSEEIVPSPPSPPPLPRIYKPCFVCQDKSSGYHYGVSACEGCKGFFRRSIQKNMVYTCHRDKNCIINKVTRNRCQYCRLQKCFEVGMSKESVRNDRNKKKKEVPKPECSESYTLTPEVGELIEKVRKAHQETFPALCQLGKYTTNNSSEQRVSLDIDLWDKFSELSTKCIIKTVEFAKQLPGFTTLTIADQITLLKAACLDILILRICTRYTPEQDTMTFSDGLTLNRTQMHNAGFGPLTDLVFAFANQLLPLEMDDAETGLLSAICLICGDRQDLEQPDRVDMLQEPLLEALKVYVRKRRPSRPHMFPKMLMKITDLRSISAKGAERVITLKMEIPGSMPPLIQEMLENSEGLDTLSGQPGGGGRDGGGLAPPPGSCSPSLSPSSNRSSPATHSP
# UniProt P37231: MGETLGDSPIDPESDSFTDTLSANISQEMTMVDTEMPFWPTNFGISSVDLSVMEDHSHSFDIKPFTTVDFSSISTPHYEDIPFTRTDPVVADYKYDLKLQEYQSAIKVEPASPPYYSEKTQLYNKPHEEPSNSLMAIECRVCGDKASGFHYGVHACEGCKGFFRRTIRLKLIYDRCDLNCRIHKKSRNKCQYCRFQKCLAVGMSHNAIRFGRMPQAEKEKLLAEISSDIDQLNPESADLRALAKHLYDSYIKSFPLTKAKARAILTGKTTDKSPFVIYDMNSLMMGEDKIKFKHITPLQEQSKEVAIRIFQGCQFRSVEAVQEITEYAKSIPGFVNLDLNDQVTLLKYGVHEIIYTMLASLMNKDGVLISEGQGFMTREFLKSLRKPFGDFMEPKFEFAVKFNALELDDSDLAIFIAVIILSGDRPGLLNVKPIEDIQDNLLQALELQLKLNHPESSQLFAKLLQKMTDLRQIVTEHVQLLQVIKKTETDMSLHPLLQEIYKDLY
# UniProt P13631, whole entry, looked up: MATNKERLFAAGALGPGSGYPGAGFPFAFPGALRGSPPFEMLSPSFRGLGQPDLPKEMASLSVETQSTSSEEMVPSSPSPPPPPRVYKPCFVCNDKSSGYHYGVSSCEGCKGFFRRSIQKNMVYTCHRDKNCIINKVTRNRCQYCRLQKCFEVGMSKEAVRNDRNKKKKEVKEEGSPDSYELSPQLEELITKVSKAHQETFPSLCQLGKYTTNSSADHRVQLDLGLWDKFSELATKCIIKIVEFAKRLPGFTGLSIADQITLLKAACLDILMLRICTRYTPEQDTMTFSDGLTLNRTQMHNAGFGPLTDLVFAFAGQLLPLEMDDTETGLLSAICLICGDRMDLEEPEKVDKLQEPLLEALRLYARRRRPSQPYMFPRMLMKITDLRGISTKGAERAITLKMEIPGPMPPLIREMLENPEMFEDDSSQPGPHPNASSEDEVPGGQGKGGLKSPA
# UniProt Q92753: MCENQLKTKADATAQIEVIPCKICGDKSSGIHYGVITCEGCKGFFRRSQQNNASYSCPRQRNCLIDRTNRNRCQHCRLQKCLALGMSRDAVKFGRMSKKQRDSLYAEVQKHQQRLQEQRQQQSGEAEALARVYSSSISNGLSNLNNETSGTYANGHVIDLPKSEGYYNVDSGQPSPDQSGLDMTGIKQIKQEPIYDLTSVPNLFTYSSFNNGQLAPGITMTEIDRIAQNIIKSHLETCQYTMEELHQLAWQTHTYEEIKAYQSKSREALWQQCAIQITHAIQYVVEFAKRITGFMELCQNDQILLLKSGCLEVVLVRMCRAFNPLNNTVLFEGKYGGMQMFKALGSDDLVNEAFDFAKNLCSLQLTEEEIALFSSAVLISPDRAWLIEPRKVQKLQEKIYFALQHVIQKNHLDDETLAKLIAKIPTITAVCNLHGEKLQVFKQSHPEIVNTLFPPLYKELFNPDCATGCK
# UniProt P51449: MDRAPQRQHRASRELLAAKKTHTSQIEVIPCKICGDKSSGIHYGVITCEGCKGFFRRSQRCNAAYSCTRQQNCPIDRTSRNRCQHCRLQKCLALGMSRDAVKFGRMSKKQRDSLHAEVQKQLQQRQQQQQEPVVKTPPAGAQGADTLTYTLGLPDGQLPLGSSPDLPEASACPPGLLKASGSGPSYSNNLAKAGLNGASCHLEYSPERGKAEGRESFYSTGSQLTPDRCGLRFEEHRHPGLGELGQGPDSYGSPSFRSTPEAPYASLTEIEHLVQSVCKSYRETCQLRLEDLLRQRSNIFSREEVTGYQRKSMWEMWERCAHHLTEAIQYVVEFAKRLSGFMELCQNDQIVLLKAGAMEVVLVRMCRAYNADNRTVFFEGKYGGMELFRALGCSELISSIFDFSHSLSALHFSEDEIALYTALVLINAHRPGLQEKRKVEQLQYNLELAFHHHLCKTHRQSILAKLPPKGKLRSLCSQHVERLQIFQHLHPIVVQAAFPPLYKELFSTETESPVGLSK
# UniProt P10827: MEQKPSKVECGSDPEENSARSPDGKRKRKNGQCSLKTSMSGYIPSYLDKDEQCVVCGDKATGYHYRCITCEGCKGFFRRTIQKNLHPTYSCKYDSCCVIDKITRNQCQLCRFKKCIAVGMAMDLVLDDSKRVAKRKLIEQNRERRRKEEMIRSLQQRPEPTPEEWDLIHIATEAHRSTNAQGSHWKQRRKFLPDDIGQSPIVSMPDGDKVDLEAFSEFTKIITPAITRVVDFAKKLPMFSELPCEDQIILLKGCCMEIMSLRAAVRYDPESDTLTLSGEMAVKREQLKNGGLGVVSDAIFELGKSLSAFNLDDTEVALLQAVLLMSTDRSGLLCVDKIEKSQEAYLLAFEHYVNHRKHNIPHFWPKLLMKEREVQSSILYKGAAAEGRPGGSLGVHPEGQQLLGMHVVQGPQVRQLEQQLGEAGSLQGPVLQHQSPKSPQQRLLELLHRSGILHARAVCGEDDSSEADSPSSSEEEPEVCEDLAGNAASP
# UniProt P28702: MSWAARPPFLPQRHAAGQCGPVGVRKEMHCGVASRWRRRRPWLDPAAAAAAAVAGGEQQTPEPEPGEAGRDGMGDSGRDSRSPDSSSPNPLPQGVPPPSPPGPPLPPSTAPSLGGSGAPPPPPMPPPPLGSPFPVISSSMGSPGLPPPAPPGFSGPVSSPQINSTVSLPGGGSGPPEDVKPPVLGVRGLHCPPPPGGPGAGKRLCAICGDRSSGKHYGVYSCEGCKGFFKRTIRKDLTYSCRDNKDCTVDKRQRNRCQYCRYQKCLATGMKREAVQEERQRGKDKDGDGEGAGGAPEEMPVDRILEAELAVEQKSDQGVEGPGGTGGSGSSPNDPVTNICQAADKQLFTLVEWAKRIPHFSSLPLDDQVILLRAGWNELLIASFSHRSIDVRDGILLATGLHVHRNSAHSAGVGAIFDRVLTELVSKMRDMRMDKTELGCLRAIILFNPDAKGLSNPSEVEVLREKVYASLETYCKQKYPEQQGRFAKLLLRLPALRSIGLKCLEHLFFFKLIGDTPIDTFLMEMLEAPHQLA
# UniProt P11473: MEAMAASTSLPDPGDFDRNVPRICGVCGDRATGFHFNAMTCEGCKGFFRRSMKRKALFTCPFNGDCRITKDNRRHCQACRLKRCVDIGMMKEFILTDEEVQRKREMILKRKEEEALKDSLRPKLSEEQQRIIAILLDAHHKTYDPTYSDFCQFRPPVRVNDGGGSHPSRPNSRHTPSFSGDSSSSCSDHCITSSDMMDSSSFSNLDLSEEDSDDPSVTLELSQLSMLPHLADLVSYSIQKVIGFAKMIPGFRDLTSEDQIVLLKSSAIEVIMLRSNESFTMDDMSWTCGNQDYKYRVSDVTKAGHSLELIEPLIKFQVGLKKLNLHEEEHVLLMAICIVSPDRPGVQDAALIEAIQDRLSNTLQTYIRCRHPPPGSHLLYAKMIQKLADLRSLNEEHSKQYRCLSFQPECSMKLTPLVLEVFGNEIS
# UniProt P11511: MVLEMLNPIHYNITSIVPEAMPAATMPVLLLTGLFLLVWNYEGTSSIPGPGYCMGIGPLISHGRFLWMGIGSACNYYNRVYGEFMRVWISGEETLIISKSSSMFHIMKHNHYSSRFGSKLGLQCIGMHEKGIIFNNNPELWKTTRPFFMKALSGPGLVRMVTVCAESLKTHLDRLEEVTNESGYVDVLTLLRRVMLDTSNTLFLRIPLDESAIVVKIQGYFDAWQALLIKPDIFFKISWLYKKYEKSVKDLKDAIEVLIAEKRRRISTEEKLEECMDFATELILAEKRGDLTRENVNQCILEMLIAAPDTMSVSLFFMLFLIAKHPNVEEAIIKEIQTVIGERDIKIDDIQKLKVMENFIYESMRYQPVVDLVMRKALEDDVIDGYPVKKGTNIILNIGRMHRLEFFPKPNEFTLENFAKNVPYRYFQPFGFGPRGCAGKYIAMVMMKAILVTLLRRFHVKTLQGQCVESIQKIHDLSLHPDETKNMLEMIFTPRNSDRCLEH
# UniProt P04798: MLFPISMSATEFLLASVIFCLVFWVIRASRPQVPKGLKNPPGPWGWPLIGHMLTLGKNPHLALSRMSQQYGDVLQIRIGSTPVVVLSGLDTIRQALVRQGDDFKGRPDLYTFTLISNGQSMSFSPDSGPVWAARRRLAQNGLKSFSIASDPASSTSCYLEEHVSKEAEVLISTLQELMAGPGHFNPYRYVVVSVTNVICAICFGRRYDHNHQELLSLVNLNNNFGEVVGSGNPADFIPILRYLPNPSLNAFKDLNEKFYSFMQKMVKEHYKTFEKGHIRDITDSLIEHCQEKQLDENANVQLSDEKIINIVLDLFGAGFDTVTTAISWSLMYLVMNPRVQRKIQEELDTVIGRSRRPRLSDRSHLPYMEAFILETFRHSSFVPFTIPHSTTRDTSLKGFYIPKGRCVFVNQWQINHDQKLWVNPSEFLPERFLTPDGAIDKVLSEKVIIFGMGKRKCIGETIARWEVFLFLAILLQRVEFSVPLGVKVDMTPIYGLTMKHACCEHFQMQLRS
# UniProt P19793: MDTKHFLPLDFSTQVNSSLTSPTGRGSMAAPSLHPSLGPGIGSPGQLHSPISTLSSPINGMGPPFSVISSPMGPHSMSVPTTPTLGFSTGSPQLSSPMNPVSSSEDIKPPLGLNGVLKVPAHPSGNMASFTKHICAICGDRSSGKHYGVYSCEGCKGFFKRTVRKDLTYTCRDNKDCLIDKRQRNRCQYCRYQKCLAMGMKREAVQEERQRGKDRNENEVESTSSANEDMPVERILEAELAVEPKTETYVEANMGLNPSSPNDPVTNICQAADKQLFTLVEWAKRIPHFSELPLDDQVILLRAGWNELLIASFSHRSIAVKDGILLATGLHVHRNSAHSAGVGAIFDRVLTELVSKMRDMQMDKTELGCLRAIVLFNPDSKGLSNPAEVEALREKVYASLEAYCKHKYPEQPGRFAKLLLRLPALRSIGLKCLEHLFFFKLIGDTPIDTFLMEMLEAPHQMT
# What was measured:
# [1] = biological target: Retinoic acid receptor alpha (Homo sapiens) (UniProt P10276); test: ATG_RARa_TRANS: Attagene TRANS-FACTORIAL HepG2 Assay for human Retinoic Acid Receptor alpha (RARa) (AID 2283005);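 for AC50: potency for increased reporter signal meaning RARa activation over DMSO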
# In short: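 HepG2 cells transiently transfected with multiple reporter units expressing chimeric RARα-GAL4 fusion, with GAL4-UAS-driven reporters. After 24 h compound exposure, reporter mRNA induction quantified by RT-PCR and capillary electrophoresis with fluorescent labeling; gain-of-signal fitted relative to DMSO control.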
# [2] = biological target: Peroxisome proliferator-activated receptor gamma (Homo sapiens) (UniProt P37231); test: ATG_PPARg_TRANS: Attagene TRANS-FACTORIAL HepG2 Assay for human Peroxisome Proliferator-activated Receptor-gamma (PPARg) (AID 2283007)
# In short: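 Transient transfection of HepG2 with GAL4-UAS-driven reporter units; chemical dosing 24 h; total RNA → oligo(dT) RT → PCR with reporter primers → 6-FAM primer extension → HpaI digest 2 h 37 C → capillary electrophoresis. Positive direction vs DMSO.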
# [3] = biological target: human Retinoic Acid Receptor gamma (RARg), RARG (gene 5916) (UniProt P13631); test: ATG_RARg_TRANS: Attagene TRANS-FACTORIAL HepG2 Assay for human Retinoic Acid Receptor gamma (RARg) (AID 2283009);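 for AC50: AC50 is for reporter induction above DMSO meaning RARg activation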
# In short: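 TRANS format measured activity of exogenous NR-GAL4 fusion (RARg) in transfected HepG2 liver cells after 24 h dosing. Induced reporter RNA was detected by RT-PCR/capillary electrophoresis fluorescence, analysed in the positive direction against DMSO.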
# [4] = biological target: human RAR-related Orphan Receptor beta (RORb), RORB (gene 6096) (UniProt Q92753); test: ATG_RORb_TRANS: Attagene TRANS-FACTORIAL HepG2 Assay for human RAR-related Orphan Receptor beta (RORb) (AID 2283010);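 for AC50: potency for increased reporter mRNA meaning activation of RORb-Gal4 chimera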
# In short: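 Transfect HepG2 with multiple GAL4-UAS reporter transcription units; dose chemicals for 24 h; isolate RNA, reverse-transcribe and PCR-amplify reporter sequences; label, digest and resolve fragments by capillary electrophoresis; fit increases relative to DMSO.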
# [5] = biological target: human RAR-related Orphan Receptor gamma (RORg), RORC (gene 6097) (UniProt P51449); test: ATG_RORg_TRANS: Attagene TRANS-FACTORIAL HepG2 Assay for human RAR-related Orphan Receptor gamma (RORg) (AID 2283011);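 for AC50: potency for induction of reporter transcripts above DMSO so activators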
# In short: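 Activity is scored as increase in GAL4-UAS reporter mRNA over DMSO, detected by fluorescent RT-PCR and capillary electrophoresis in HepG2 cells transiently expressing a RORg-Gal4 chimera, 24 h after dosing.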
# [6] = biological target: human Thyroid Receptor alpha (THRa1), THRA (gene 7067) (UniProt P10827); test: ATG_THRa1_TRANS: Attagene TRANS-FACTORIAL HepG2 Assay for human Thyroid Receptor alpha (THRa1) (AID 2283014)
# In short: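 First, HepG2 cells receive multiple GAL4-UAS reporter units and the chimeric receptor. They are then dosed for 24 h, after which RNA is reverse-transcribed, amplified, labelled, HpaI-cut and sized by capillary electrophoresis; gain relative to DMSO is scored.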
# [7] = biological target: human Retinoid X Receptor beta (RXRb), RXRB (gene 6257) (UniProt P28702); test: ATG_RXRb_TRANS: Attagene TRANS-FACTORIAL HepG2 Assay for human Retinoid X Receptor beta (RXRb) (AID 2283013)
# In short: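 Chimeric receptor-Gal4 activity was assessed in transiently transfected human HepG2 cells after 24 h exposure. Transcripts from GAL4-UAS reporters were quantified by fluorescent RT-PCR and capillary electrophoresis, with DMSO as negative control and baseline.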
# [8] = biological target: human Vitamin D Receptor (VDR), VDR (gene 7421) (UniProt P11473); test: ATG_VDR_TRANS: Attagene TRANS-FACTORIAL HepG2 Assay for human Vitamin D Receptor (VDR) (AID 2283022)
# In short: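 Fluorescence of labelled reporter cDNA fragments, resolved by capillary electrophoresis, gives mRNA induction after 24 h treatment of HepG2 cells carrying transfected Gal4-fusion reporter units. Activity is fitted in the positive direction with DMSO as baseline.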
# [9] = biological target: human CYP19A1, CYP19A1 (gene 1588) (UniProt P11511); test: NVS_ADME_hCYP19A1: NovaScreen (NVS) CYP450-related Enzyme Activity (ADME) Assay for human CYP19A1 (AID 2283098);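 note: potency for inhibitors seen as loss of fluorescent enzyme signal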
# In short: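 Compounds were first screened at 10 uM in duplicate against purified enzyme, with a fluorogenic substrate and fluorescence intensity detection after 0.5 h. Inhibition appears as reduced signal against acetonitrile control.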
# [10] = biological target: human CYP1A1, CYP1A1 (gene 1543) (UniProt P04798); test: NVS_ADME_hCYP1A1: NovaScreen (NVS) CYP450-related Enzyme Activity (ADME) Assay for human CYP1A1 (AID 2283100)
# In short: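 Compounds first went through duplicate single-concentration testing at 10 uM against purified CYP1A1. Those passing a threshold such as 30% inhibition entered singleton dose-response, highest concentration 20 uM. Signal was fluorescence measured after 1 hour.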
# [11] = biological target: Retinoic acid receptor RXR-alpha (Homo sapiens) (UniProt P19793); test: ATG_RXRa_TRANS: Attagene TRANS-FACTORIAL HepG2 Assay for human Retinoid X Receptor alpha (RXRa) (AID 2283012)
# In short: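 Measures exogenous chimeric NR-GAL4 activity in transfected HepG2 liver cells after 24 h of dosing. Induced reporter mRNA was detected by RT-PCR with capillary electrophoresis, and gain of signal was analysed against DMSO.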
smiles,measurement,setting,value
CCOC(=O)CC(=O)CCl,AC50,[1],inconclusive: 23.5 µM
same,AC50,[2],active: 22 µM
same,AC50,[3],inconclusive: 2.05 µM
same,outcome,[4],inactive
same,outcome,[5],inactive
same,AC50,[6],active: 100 µM
CCC[N+](CCC)(CCC)CCC,outcome,[1],inactive
same,AC50,[2],inconclusive: 100 µM
same,outcome,[3],inactive
same,AC50,[5],inconclusive: 175 µM
same,AC50,[6],inconclusive: 100 µM
FC(F)(F)c1ccc(Cl)cc1,AC50,[1],inconclusive: 100 µM
same,outcome,[2],inactive
same,AC50,[3],inconclusive: 100 µM
same,AC50,[4],inconclusive: 100 µM
same,AC50,[5],inconclusive: 19.8 µM
same,AC50,[7],inconclusive: 100 µM
same,AC50,[6],inconclusive: 100 µM
same,AC50,[8],inconclusive: 100 µM
Cc1ccc2c(c1N)C(=O)c1ccccc1C2=O,AC50,[1],inconclusive: 25.5 µM
same,outcome,[2],inactive
same,AC50,[3],inconclusive: 11.2 µM
same,AC50,[4],inconclusive: 177 µM
same,AC50,[5],inconclusive: 26.3 µM
same,outcome,[6],inactive
Cn1[nH]nnc1=S,outcome,[1],inactive
same,AC50,[2],inconclusive: 15.5 µM
same,AC50,[3],inconclusive: 183 µM
same,outcome,[4],inactive
same,AC50,[5],inconclusive: 100 µM
same,AC50,[7],inconclusive: 100 µM
same,AC50,[6],inconclusive: 48.7 µM
same,AC50,[8],inconclusive: 100 µM
Nc1ccc2ccccc2c1,outcome,[1],inactive
same,outcome,[2],inactive
same,outcome,[3],inactive
same,outcome,[4],inactive
same,outcome,[5],inactive
same,outcome,[6],inactive
same,AC50,[8],inconclusive: 100 µM
same,AC50,[10],inconclusive: 4.85 µM
CC(C)CC(C)(c1ccc(O)cc1)c1ccc(O)cc1,outcome,[1],inactive
same,AC50,[2],active: 11.1 µM
same,outcome,[3],inactive
same,AC50,[4],inconclusive: 11.1 µM
same,AC50,[5],inconclusive: 18.4 µM
same,outcome,[8],inactive
O=[N+]([O-])c1ccccc1,outcome,[1],inactive
same,AC50,[2],inconclusive: 100 µM
same,AC50,[3],inconclusive: 0.00958 µM
same,AC50,[4],inconclusive: 100 µM
same,AC50,[5],inconclusive: 100 µM
same,AC50,[11],inconclusive: 100 µM
same,AC50,[7],active: 10.7 µM
same,AC50,[6],inconclusive: 19.5 µM
OCCCBr,AC50,[1],inconclusive: 35.9 µM
same,AC50,[2],inconclusive: 180 µM
same,AC50,[3],inconclusive: 100 µM
same,AC50,[4],inconclusive: 100 µM
same,AC50,[11],inconclusive: 100 µM
same,outcome,[7],inactive
O=C1c2ccccc2C(=O)C1C(=O)C(c1ccccc1)c1ccc(Cl)cc1 (stereo not drawn),AC50,[1],active: 26.1 µM
same,AC50,[2],active: 3.11 µM
same,outcome,[3],inactive
same,outcome,[4],inactive
same,AC50,[5],inconclusive: 100 µM
same,AC50,[6],active: 7.69 µM
same,AC50,[9],active: 5.08 µM
FC(F)OCC(F)(F)C(F)(F)F,AC50,[1],inconclusive: 263 µM
same,AC50,[2],inconclusive: 150 µM
same,AC50,[3],inconclusive: 150 µM
same,AC50,[4],inconclusive: 261 µM
same,AC50,[5],inconclusive: 150 µM
same,AC50,[6],inconclusive: 150 µM
N#Cc1cc([N+](=O)[O-])ccc1N,AC50,[1],inconclusive: 100 µM
same,outcome,[2],inactive
same,AC50,[3],inconclusive: 4.51 µM
same,AC50,[4],inconclusive: 100 µM
same,outcome,[11],inactive
same,outcome,[7],inactive
same,AC50,[6],inconclusive: 100 µM
same,outcome,[8],inactive
ClC1=C(Cl)[C@]2(Cl)[C@@H]3[C@@H](Cl)[C@H]4O[C@H]4[C@@H]3C1(Cl)C2(Cl)Cl,outcome,[1],inactive
same,AC50,[2],inconclusive: 100 µM
same,outcome,[3],inactive
same,AC50,[4],inconclusive: 0.279 µM
same,AC50,[5],inconclusive: 27.9 µM
same,AC50,[6],inconclusive: 182 µM
CC1(C)C(C=C(Cl)Cl)C1C(=O)OC(C#N)c1cccc(Oc2ccccc2)c1 (stereo not drawn),outcome,[1],inactive
same,AC50,[2],active: 17.9 µM
same,outcome,[3],inactive
same,outcome,[4],inactive
same,outcome,[5],inactive
same,AC50,[6],inconclusive: 50 µM
same,AC50,[8],inconclusive: 50 µM
Cl/C=C\CCl,AC50,[1],inconclusive: 100 µM
same,outcome,[2],inactive
same,AC50,[3],inconclusive: 100 µM
same,AC50,[4],inconclusive: 100 µM
same,AC50,[11],inconclusive: 100 µM

# Nothing new here: entries from further up.
smiles,measurement,setting,value
O=C1c2ccccc2C(=O)C1C(=O)C(c1ccccc1)c1ccc(Cl)cc1 (stereo not drawn),AC50,[5],inconclusive: 100 µM
same,AC50,[6],active: 7.69 µM
same,AC50,[9],active: 5.08 µM

# Retrieved one by one from the list above (4):
smiles,measurement,setting,value
Nc1ccc2ccccc2c1,outcome,[3],inactive
CCOC(=O)CC(=O)CCl,AC50,[2],active: 22 µM
Nc1ccc2ccccc2c1,outcome,[5],inactive
CC(C)CC(C)(c1ccc(O)cc1)c1ccc(O)cc1,AC50,[5],inconclusive: 18.4 µM
